# Assay results published in the supplement of paper PMC8728848.
# The list shows a part of the results.
# B1: 4F2hc (Homo sapiens), P08195 (protein)
# chain: WWHTGALYRIGDLQAFQGHGAGNLAGLKGRLDYLSSLKVKGLVLGPIHKNQKDDVAQTDLLQIDPNFGSKEDFDSLLQSAKKKSIRVILDLTPNYRGENSWFSTQVDTVATKVKDALEFWLQAGVDGFQVRDIENLKDASSFLAEWQNITKGFSEDRLLIAGTNSSDLQQILSLLESNKDLLLTSSYLSDSGSTGEHTKSLVTQYLNATGNRWCSWSLSQARLLTSFLPAQLLRLYQLMLFTLPGTPVFSYGDEIGLDAAALPGQPMEAPVMLWDESSFPDIPGAVSANMTVKGQSEDPGSLLSLFRRLSDQRSKERSLLHGDFHAFSAGPGLFSYIRHWDQNERFLVVLNFGDVGLSAGLQASDLPASASLPAKADLLLSTQPGREEGSPLELERLKLEPHEGLLLRFPYAA
# Experiments:
# Assay in all cases: glycan array binding signal (z-score within array); higher = stronger binding
# Details in all cases: glycan notation: IUPAC condensed, linker removed
# [1] = target: Gal(b1-4)GlcNAc(b1-3)[GlcNAc(b1-6)]Gal(b1-4)GlcNAc
# In short: (§1)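 The Consortium for Functional Glycomics database supplied 3228 glycan arrays, of which those lacking an available protein sequence were dropped. The binding signal, a within-array Z-score, was averaged across arrays of the same protein sequence and across linkers. Negative scores can be read as non-binding.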
# [2] = target: Gal(b1-4)GlcNAc(b1-6)Gal(b1-4)GlcNAc
# In short: as §1
# [3] = target: Gal(b1-4)GlcNAc(b1-6)Gal(b1-4)GlcNAc(b1-6)GalNAc
# In short: as §1
# [4] = target: Gal(b1-4)GlcNAc(b1-6)GalNAc
# In short: as §1
# [5] = target: Gal(b1-4)GlcNAc(b1-6)[Gal(b1-3)]GalNAc
# In short: as §1
# Gal3S(b1-3)GalNAc = target: Gal3S(b1-3)GalNAc
# In short: as §1
# Gal3S(b1-3)GlcNAc = target: Gal3S(b1-3)GlcNAc
# In short: as §1
# [6] = target: Gal3S(b1-3)[Fuc(a1-4)]GlcNAc
# In short: as §1
# Gal3S(b1-4)Glc = target: Gal3S(b1-4)Glc
# In short: as §1
# Gal3S(b1-4)Glc6S = target: Gal3S(b1-4)Glc6S
# In short: as §1
# Gal3S(b1-4)GlcNAc = target: Gal3S(b1-4)GlcNAc
# In short: as §1
# Gal3S(b1-4)GlcNAc6S = target: Gal3S(b1-4)GlcNAc6S
# In short: as §1
# [7] = target: Gal3S(b1-4)[Fuc(a1-3)]Glc
# In short: as §1
# Gal3S4S(b1-4)GlcNAc = target: Gal3S4S(b1-4)GlcNAc
# In short: as §1
# Gal3S6S(b1-4)GlcNAc = target: Gal3S6S(b1-4)GlcNAc
# In short: as §1
# Gal3S6S(b1-4)GlcNAc6S = target: Gal3S6S(b1-4)GlcNAc6S
# In short: as §1
# Gal4S(b1-4)GlcNAc = target: Gal4S(b1-4)GlcNAc
# In short: as §1
# Gal4S6S(b1-4)GlcNAc = target: Gal4S6S(b1-4)GlcNAc
# In short: as §1
# Gal6S(b1-4)Glc = target: Gal6S(b1-4)Glc
# In short: as §1
# Gal6S(b1-4)Glc6S = target: Gal6S(b1-4)Glc6S
# In short: as §1
# Gal6S(b1-4)GlcNAc = target: Gal6S(b1-4)GlcNAc
# In short: as §1
# Gal6S(b1-4)GlcNAc6S = target: Gal6S(b1-4)GlcNAc6S
# In short: as §1
# GalNAc(a1-3)Gal = target: GalNAc(a1-3)Gal
# In short: as §1
# GalNAc(a1-3)GalNAc = target: GalNAc(a1-3)GalNAc
# In short: as §1
# GalNAc(b1-3)Gal = target: GalNAc(b1-3)Gal
# In short: as §1
# [8] = target: GalNAc(b1-3)Gal(a1-4)Gal(b1-4)GlcNAc
# In short: as §1
# [9] = target: GalNAc(b1-3)Gal(a1-4)Gal(b1-4)GlcNAc(b1-3)Gal(b1-4)Glc
# In short: as §1
# GalNAc(b1-3)GalNAc = target: GalNAc(b1-3)GalNAc
# In short: as §1
# GalNAc(b1-4)GlcNAc = target: GalNAc(b1-4)GlcNAc
# In short: as §1
# [10] = target: GalNAc(b1-4)GlcNAc(b1-2)Man(a1-3)[GalNAc(b1-4)GlcNAc(b1-2)Man(a1-6)]Man(b1-4)GlcNAc(b1-4)GlcNAc
# In short: as §1
# Glc(a1-4)Glc = target: Glc(a1-4)Glc
# In short: as §1
# Glc(a1-6)Glc(a1-6)Glc = target: Glc(a1-6)Glc(a1-6)Glc
# In short: as §1
# Glc(b1-4)Glc = target: Glc(b1-4)Glc
# In short: as §1
# Glc(b1-6)Glc = target: Glc(b1-6)Glc
# In short: as §1
# GlcA(b1-3)Gal = target: GlcA(b1-3)Gal
# In short: as §1
# GlcA(b1-3)GlcNAc = target: GlcA(b1-3)GlcNAc
# In short: as §1
# GlcA(b1-6)Gal = target: GlcA(b1-6)Gal
# In short: as §1
binder,measurement,setting,value
B1,glycan array binding signal (z-score),[1],-0.416
same,glycan array binding signal (z-score),[2],-0.645
same,glycan array binding signal (z-score),[3],-0.288
same,glycan array binding signal (z-score),[4],1.14
same,glycan array binding signal (z-score),[5],-0.748
same,glycan array binding signal (z-score),Gal3S(b1-3)GalNAc,0.107
same,glycan array binding signal (z-score),Gal3S(b1-3)GlcNAc,0.65
same,glycan array binding signal (z-score),[6],-0.207
same,glycan array binding signal (z-score),Gal3S(b1-4)Glc,-0.239
same,glycan array binding signal (z-score),Gal3S(b1-4)Glc6S,-0.163
same,glycan array binding signal (z-score),Gal3S(b1-4)GlcNAc,-0.49
same,glycan array binding signal (z-score),Gal3S(b1-4)GlcNAc6S,-0.477
same,glycan array binding signal (z-score),[7],-0.508
same,glycan array binding signal (z-score),Gal3S4S(b1-4)GlcNAc,3.95
same,glycan array binding signal (z-score),Gal3S6S(b1-4)GlcNAc,0.274
same,glycan array binding signal (z-score),Gal3S6S(b1-4)GlcNAc6S,-0.868
same,glycan array binding signal (z-score),Gal4S(b1-4)GlcNAc,-0.887
same,glycan array binding signal (z-score),Gal4S6S(b1-4)GlcNAc,0.717
same,glycan array binding signal (z-score),Gal6S(b1-4)Glc,-0.252
same,glycan array binding signal (z-score),Gal6S(b1-4)Glc6S,-0.183
same,glycan array binding signal (z-score),Gal6S(b1-4)GlcNAc,0.291
same,glycan array binding signal (z-score),Gal6S(b1-4)GlcNAc6S,0.094
same,glycan array binding signal (z-score),GalNAc(a1-3)Gal,0.209
same,glycan array binding signal (z-score),GalNAc(a1-3)GalNAc,1.36
same,glycan array binding signal (z-score),GalNAc(b1-3)Gal,-0.631
same,glycan array binding signal (z-score),[8],-0.432
same,glycan array binding signal (z-score),[9],-0.255
same,glycan array binding signal (z-score),GalNAc(b1-3)GalNAc,-0.167
same,glycan array binding signal (z-score),GalNAc(b1-4)GlcNAc,-1.02
same,glycan array binding signal (z-score),[10],-0.271
same,glycan array binding signal (z-score),Glc(a1-4)Glc,-0.079
same,glycan array binding signal (z-score),Glc(a1-6)Glc(a1-6)Glc,0.043
same,glycan array binding signal (z-score),Glc(b1-4)Glc,-1.04
same,glycan array binding signal (z-score),Glc(b1-6)Glc,-1.01
same,glycan array binding signal (z-score),GlcA(b1-3)Gal,-0.532
same,glycan array binding signal (z-score),GlcA(b1-3)GlcNAc,0.213
same,glycan array binding signal (z-score),GlcA(b1-6)Gal,-0.927

# 2 entries from above in another layout:
binder	measurement	setting	value
B1	glycan array binding signal (z-score)	[5]	-0.748
same	glycan array binding signal (z-score)	GlcA(b1-3)Gal	-0.532
